Binding data for five molecules are collected here from publication PMC7423155.

Results are given in words; binding and its absence hold for the method and conditions named. Binding seen in cells or lysates may run through a third protein. For some of these results: Binding calls can cover weak binding; strength is not graded here.

The target in experiment [1] is STREP2-FLAG-tagged RCC1L^V3 (human). The experiment can be described thus: co-IP; STREP2-FLAG-tagged RCC1L isoform as bait, captured on Strep-Tactin Sepharose overnight from trypsin-treated, sucrose gradient-purified HEK mitochondria lysed with 0.8% DDM; 10 washes; elution with 10 mM desthiobiotin; endogenous proteins in the elution found by immunoblot.
Experiment [2] has as its target STREP2-FLAG-tagged RCC1L^V2 (human). The experiment is described as above.

B1: ERAL1 (enzyme, UniProt O75616 44-437)
chain: VSCVAGSAFSGPRLASASRSNGQGSALDHFLGFSQPDSSVTPCVPAVSMNRDEQDVLLVHHPDMPENSRVLRVVLLGAPNAGKSTLSNQLLGRKVFPVSRKVHTTRCQALGVITEKETQVILLDTPGIISPGKQKRHHLELSLLEDPWKSMESADLVVVLVDVSDKWTRNQLSPQLLRCLTKYSQIPSVLVMNKVDCLKQKSVLLELTAALTEGVVNGKKLKMRQAFHSHPGTHCPSPAVKDPNTQSVGNPQRIGWPHFKEIFMLSALSQEDVKTLKQYLLTQAQPGPWEYHSAVLTSQTPEEICANIIREKLLEHLPQEVPYNVQQKTAVWEEGPGGELVIQQKLLVPKESYVKLLIGPKGHVISQIAQEAGHDLMDIFLCDVDIRLSVKLLK
As for B1, the binding entry is listed as “binds” in experiment [1] and “no binding” in experiment [2].

B2: TRUB2 (enzyme, UniProt O95900 11-331)
chain: GLFAVYKPPGLKWKHLRDTVELQLLKGLNARKPPAPKQRVRFLLGPMEGSEEKELTLTATSVPSFINHPLVCGPAFAHLKVGVGHRLDAQASGVLVLGVGHGCRLLTDMYNAHLTKDYTVRGLLGKATDDFREDGRLVEKTTYDHVTREKLDRILAVIQGSHQKALVMYSNLDLKTQEAYEMAVRGLIRPMNKSPMLITGIRCLYFAPPEFLLEVQCMHETQKELRKLVHEIGLELKTTAVCTQVRRTRDGFFTLDSALLRTQWDLTNIQDAIRAATPQVAAELEKSLSPGLDTKQLPSPGWSWDSQGPSSTLGLERGAGQ
As to B2, the binding result in experiment [2] is reported as “no binding”.

B3: C4orf14 (enzyme, UniProt Q8NC60 1-698)
chain: MLPARLPFRLLSLFLRGSAPTAARHGLREPLLERRCAAASSFQHSSSLGRELPYDPVDTEGFGEGGDMQERFLFPEYILDPEPQPTREKQLQELQQQQEEEERQRQQRREERRQQNLRARSREHPVVGHPDPALPPSGVNCSGCGAELHCQDAGVPGYLPREKFLRTAEADGGLARTVCQRCWLLSHHRRALRLQVSREQYLELVSAALRRPGPSLVLYMVDLLDLPDALLPDLPALVGPKQLIVLGNKVDLLPQDAPGYRQRLRERLWEDCARAGLLLAPGHQGPQRPVKDEPQDGENPNPPNWSRTVVRDVRLISAKTGYGVEELISALQRSWRYRGDVYLVGATNAGKSTLFNTLLESDYCTAKGSEAIDRATISPWPGTTLNLLKFPICNPTPYRMFKRHQRLKKDSTQAEEDLSEQEQNQLNVLKKHGYVVGRVGRTFLYSEEQKDNIPFEFDADSLAFDMENDPVMGTHKSTKQVELTAQDVKDAHWFYDTPGITKENCILNLLTEKEVNIVLPTQSIVPRTFVLKPGMVLFLGAIGRIDFLQGNQSAWFTVVASNILPVHITSLDRADALYQKHAGHTLLQIPMGGKERMAGFPPLVAEDIMLKEGLGASEAVADIKFSSAGWVSVTPNFKDRLHLRGYTPEGTVLTVRPPLLPYIVNIKGQRIKKSVAYKTKKPPSLMYNVRKKKGKINV
For B3, the binding entry was “binds” in experiment [1] and “no binding” in experiment [2].

B4: MTG2 (enzyme, UniProt Q9H4K7 1-406)
chain: MAPARCFSARLRTVFQGVGHWALSTWAGLKPSRLLPQRASPRLLSVGRADLAKHQELPGKKLLSEKKLKRYFVDYRRVLVCGGNGGAGASCFHSEPRKEFGGPDGGDGGNGGHVILRVDQQVKSLSSVLSRYQGFSGEDGGSKNCFGRSGAVLYIRVPVGTLVKEGGRVVADLSCVGDEYIAALGGAGGKGNRFFLANNNRAPVTCTPGQPGQQRVLHLELKTVAHAGMVGFPNAGKSSLLRAISNARPAVASYPFTTLKPHVGIVHYEGHLQIAVADIPGIIRGAHQNRGLGSAFLRHIERCRFLLFVVDLSQPEPWTQVDDLKYELEMYEKGLSARPHAIVANKIDLPEAQANLSQLRDHLGQEVIVLSALTGENLEQLLLHLKVLYDAYAEAELGQGRQPLRW
On to B4, for which the binding result in experiment [2] was “no binding”.

B5: RPUSD4 (enzyme, UniProt Q96CM3 16-377)
chain: NGQGCGSLFTLVSKPFCAAAAASTAINAQRLAEKLRAQKREQDTKKEPVSTNAVQRRVQEIVRFTRQLQRVHPNVLAKALTRGILHQDKNLVVINKPYGLPVHGGPGVQLCITDVLPILAKMLHGHKAEPLHLCHRLDKETTGVMVLAWDKDMAHQVQELFRTRQVVKKYWAITVHVPMPSAGVVDIPIVEKEAQGQQQHHKMTLSPSYRMDDGKMVKVRRSRNAQVAVTQYQVLSSTLSSALVELQPITGIKHQLRVHLSFGLDCPILGDHKYSDWNRLAPQKLSVGTLKKLGLEQSKARYIPLHLHARQLILPALGSGKEELNLVCKLPRFFVHSLHRLRLEMPNEDQNENNEAKCLGAQ
On to B5, for which the binding entry in experiment [2] is on record as “no binding”.
